Measurements published in paper doi:10.1101/2021.08.31.458340.
No constants are given. Whether binding was seen depends on the method and setting. In cells and extracts the contact can be indirect. Some binding calls cover weakened binding; strength is not graded here.

Protein sequences, listed by entry. Tags and fused reporters are not part of them.
UniProt Q8N8S7, whole entry: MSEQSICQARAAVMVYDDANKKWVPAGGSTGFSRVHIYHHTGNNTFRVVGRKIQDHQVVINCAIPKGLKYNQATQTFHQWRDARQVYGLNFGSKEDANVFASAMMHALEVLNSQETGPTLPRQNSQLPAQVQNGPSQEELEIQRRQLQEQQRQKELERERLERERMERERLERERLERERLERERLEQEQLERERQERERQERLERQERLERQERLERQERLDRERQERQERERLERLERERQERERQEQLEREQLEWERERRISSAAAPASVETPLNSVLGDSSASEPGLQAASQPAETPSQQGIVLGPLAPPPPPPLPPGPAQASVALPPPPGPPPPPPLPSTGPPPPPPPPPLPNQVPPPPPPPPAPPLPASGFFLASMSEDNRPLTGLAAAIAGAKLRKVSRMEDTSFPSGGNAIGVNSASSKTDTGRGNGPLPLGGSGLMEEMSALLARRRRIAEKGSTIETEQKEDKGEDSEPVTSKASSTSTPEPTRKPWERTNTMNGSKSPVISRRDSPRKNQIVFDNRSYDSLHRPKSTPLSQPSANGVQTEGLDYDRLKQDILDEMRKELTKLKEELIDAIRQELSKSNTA

Target: nesprin-2 (encoded by SYNE2) (human (endogenous in Met4)) (UniProt Q8WXH0)
Assay: co-IP

## Mena (human Enabled homologue, encoded by ENAH) (from UniProt Q8N8S7 1-591)
  binding: binds
